{"source": "patent US12435083B2", "about": "“Cyclopropyl-(hetero)aryl-substituted ethylsulphonyl-pyridine derivatives” (BOEHRINGER INGELHEIM VETMEDICA GMBH, priority 2021, dated 2025)", "note": "pEC50: −log10 of the molar value. Some entries share one result that the patent states for a list of compounds. At least one compound was matched to its structure with a doubt left.", "data": [{"tested_on": "adult Ctenocephalides felis fleas", "test": "Contact activity against adult Ctenocephalides felis (treated surface, motility by machine vision, 24 h)", "conditions": "not given", "source_text": "Example 7: Screening Method to Test Contact Activity of Compounds of Formula (I) Against Adult Ctenocephalides felis", "values": [{"compound": "CCS(=O)(=O)c1cc(-c2ccc(C3(C#N)CC3)cc2)cnc1-c1nc2cc(C(F)(F)C(F)(F)F)cnc2n1C", "note": "[compound 80]", "EC80 (% motility reduction, adult C. felis, contact)": "less than 1 μM"}, {"compound": "CCS(=O)(=O)c1cc(-c2cccc(C3CC3)n2)cnc1-n1ncc2cnc(C(F)(F)F)cc21", "note": "[compound 120]", "EC80 (% motility reduction, adult C. felis, contact)": "less than 1 μM"}, {"compound": "CCS(=O)(=O)c1cc(-c2ncccc2C2CC2)cnc1-c1nc2cc(C(F)(F)C(F)(F)F)nnc2n1C", "note": "[compound 137]", "EC80 (% motility reduction, adult C. felis, contact)": "less than 1 μM"}, {"compound": "CCS(=O)(=O)c1cc(-c2ccc(C3CC3)nn2)cnc1-c1nc2cc(C(F)(F)C(F)(F)F)nnc2n1C", "note": "[compound 152]", "EC80 (% motility reduction, adult C. felis, contact)": "less than 1 μM"}, {"compound": "CCS(=O)(=O)c1cc(-c2ncccc2C2CC2)cnc1-c1nc2cc(C(F)(F)C(F)(F)F)cnc2n1C", "note": "[compound 159]", "EC80 (% motility reduction, adult C. felis, contact)": "less than 1 μM"}]}, {"tested_on": "adult Ctenocephalides felis fleas", "test": "Ingestion activity (flea membrane feeding, blood feeding) against adult Ctenocephalides felis", "conditions": "bovine blood, 24h post treatment", "source_text": "Example 6: Screening Method to Test Ingestion Activity of Compounds of Formula (I) Against Adult Ctenocephalides felis\n(§1) The four structurally closest prior art compounds (A), (B), (C) and (D) specifically excluded from the scope of formula (I) were characterized vis-a-vis selected compounds of formula (I) with regard to their potency in in vitro screening assays against fleas (Ctenocehalides felis) and ticks (Rhipicephalus sanguineus).\nIt is important to note that compounds that show better activity versus ticks are more desirable in the animal health field, as ticks are more difficult to control than fleas. Noteworthy, in particular with regard to fleas the illustrated comparative data are based on a flea membrane feeding (ingestion, blood feeding) assay. Data from this assay are more relevant for compounds intended to be delivered systemically to an animal via oral or injectable routes. Membrane feeding assays differ to primary screening laboratory contact assays in that the latter only measure the effect of the direct contact of selected compounds on the parasite, such as the flea or the tick. The information derived from laboratory contact assays is strictly limited to the ability of the compound to be absorbed through the parasite surface and to reach its molecular target, and no information can be gleaned from these contact assays as to whether the compound would also be active when presented orally to the ectoparasite itself in a blood meal, such as with the membrane feeding assay, and certainly not when administered orally to an animal host (e.g. “in vivo”) with subsequent exposure to the ectoparasite.\n(§2) However, as explained above, spectrum of action against this range of species (i.e. fleas and ticks) is a desirable property of ectoparasiticides for veterinary use. In the following table 1 comparative experimental data of the in vitro assays are shown regarding flea membrane feeding (ingestion, blood feeding) activity against Ctenocephalides felis and contact activity against Rhipicephalus sanguineus.", "values": [{"compound": "CCS(=O)(=O)c1cc(-c2ccc(C3(C(F)(F)F)CC3)cc2)cnc1-c1nc2cc(C(F)(F)F)cn(CC(F)F)c-2c1F", "note": "[compound 65]", "EC80 (% motility reduction, adult C. felis, ingestion via membrane feeding)": "less than 1 μM"}, {"compound": "CCS(=O)(=O)c1cc(-c2ccc(C3(C#N)CC3)cc2)cnc1-c1nc2cc(C(F)(F)C(F)(F)F)cnc2n1C", "note": "[compound 80]", "EC80 (% motility reduction, adult C. felis, ingestion via membrane feeding)": "less than 1 μM"}, {"compound": "CCS(=O)(=O)c1cc(-c2nncc(C3CC3)n2)cnc1-c1nc2cc(C(F)(F)C(F)(F)F)nnc2n1C", "note": "[compound 151]", "EC80 (% motility reduction, adult C. felis, ingestion via membrane feeding)": "less than 1 μM"}, {"compound": "CCS(=O)(=O)c1cc(-c2cccc(C3(C(F)(F)F)CC3)n2)cnc1-c1nc2cc(C(F)(F)F)n(C3CC3)c(=O)c2n1C", "note": "[compound 179]", "EC80 (% motility reduction, adult C. felis, ingestion via membrane feeding)": "less than 1 μM"}, {"compound": "CCS(=O)(=O)c1cc(-c2ccc(C3(C#N)CC3)nn2)cnc1-c1nc2cc(C(F)(F)C(F)(F)F)nnc2n1C", "note": "[compound 183]", "EC80 (% motility reduction, adult C. felis, ingestion via membrane feeding)": "less than 1 μM"}, {"compound": "CCS(=O)(=O)c1cc(-c2ccc(C3CC3)nc2)cnc1-c1nc2cc(S(=O)(=O)C(F)(F)F)cnc2n1C", "note": "[compound 184]", "EC80 (% motility reduction, adult C. felis, ingestion via membrane feeding)": "less than 1 μM"}, {"compound": "CCS(=O)(=O)c1cc(-c2ccc(C3(C#N)CC3)cc2)cnc1-n1cc2nnc(C(F)(F)C(F)(F)F)cc2n1", "note": "[compound 193]", "EC80 (% motility reduction, adult C. felis, ingestion via membrane feeding)": "less than 1 μM"}, {"compound": "CCS(=O)(=O)c1cc(-c2ccc(C3(C#N)CC3)cc2)cnc1-c1nc2cc(C(F)(F)F)cn(C(C)C)c-2c1F", "note": "[compound 197]", "EC80 (% motility reduction, adult C. felis, ingestion via membrane feeding)": "less than 1 μM"}, {"compound": "CCS(=O)(=O)c1cc(-c2ccc(C3(C#N)CC3)cc2)cnc1-c1nc2cc(C(F)(F)F)cn(CC3CC3)c-2c1F", "note": "[compound 200]", "EC80 (% motility reduction, adult C. felis, ingestion via membrane feeding)": "less than 1 μM"}, {"compound": "CCS(=O)(=O)c1cc(-c2ccc(C3(F)CC3)cc2)cnc1-c1nc2cc(C(C)(F)F)cnc2n1C", "note": "[compound 201]", "EC80 (% motility reduction, adult C. felis, ingestion via membrane feeding)": "less than 1 μM"}, {"compound": "CCS(=O)(=O)c1cc(-c2ccc(C3(F)CC3)cc2)cnc1-c1nc2cc(C(F)(F)C(F)(F)F)cnc2n1C", "note": "[compound 211]", "EC80 (% motility reduction, adult C. felis, ingestion via membrane feeding)": "less than 1 μM"}]}, {"tested_on": "adult Rhipicephalus sanguineus ticks", "test": "Contact activity against adult Rhipicephalus sanguineus (coated vial, mortality at 48 h)", "conditions": "48 hours post-treatment, read-out: EC50 (percentage mortality, adult R. sanguineus, contact)", "experimental": "Example 5: Screening Method to Test Contact Activity of Compounds of Formula (I) Against Adult Rhipicephalus sanguineus\nCompounds of formula (I) formulated in 100% DMSO were diluted in a solution containing acetone and Triton X-100 (0.02%). The resulting formulation was used to coat the inner walls of glass scintillation vials and the filter paper covering the cap of the vial. Once dried, ten adult R. sanguineus ticks were added to the vials. The vials were incubated at 24° C., 95% relative humidity, and 12 hours of light/12 hours of dark until evaluation. Ticks were visually evaluated for mortality at 48 hours post-treatment. Compound efficacy at a given dose is expressed as percentage mortality. A dose response series was implemented to determine EC50 values.\nas §1, §2", "values": [{"compound": "CCS(=O)(=O)c1cc(-c2ccc(C3CC3)cc2)cnc1-c1cc2n(C3CC3)cc(C(F)(F)F)cc-2n1", "note": "[compound 101]", "pEC50": "> 5.00"}, {"compound": "CCS(=O)(=O)c1cc(-c2ccc(C3(C#N)CC3)cc2)cnc1-c1nc2cc(C(C)(F)F)cnc2n1C", "note": "[compound 207]", "pEC50": "> 5.00"}, {"compound": "CCS(=O)(=O)c1cc(-c2ccc(C3CC3)nc2)cnc1-c1ccc(OCC(F)(F)C(F)(F)F)nn1", "note": "[compound 213]", "pEC50": "> 5.00"}]}, {"tested_on": "Aedes aegypti L1 larvae", "test": "Activity against larvae of Aedes aegypti (L1 larvae, 384-well, image-based mortality)", "conditions": "48 h at 27° C., read-out: EC50 (percentage of mortality, A. aegypti L1 larvae)", "experimental": "Example 3: Screening Method to Test Activity of Compounds of Formula (I) Against Larvae of Aedes aegypti\nEight A. aegypti L1 larvae in a total volume of 64 μL water were added to 384-well microplates containing compounds formulated in 100% DMSO. The plates were incubated for 48 h at 27° C. Individual well images were acquired and analyzed using a pipeline to quantitatively assess the amount of larvae biomass accumulating at the bottom of the well. The efficacy of a compound at a given dose is expressed as “percentage of mortality” and determined by comparison to average biomass descriptors of positive and negative control wells containing 1.0 μM Fipronil or DMSO only, respectively. Dose response assay were conducted to determine an EC50 value.", "values": [{"compound": "CCS(=O)(=O)c1cc(-c2ccc(C3CC3)cc2)cnc1-c1nc2cc(C(F)(F)F)cn(CC(F)F)c-2c1F", "note": "[compound 12]", "pEC50": "> 7.40"}, {"compound": "CCn1cc(C(F)(F)F)cc2nc(-c3ncc(-c4ccc(C5CC5)cc4)cc3S(=O)(=O)CC)c(F)c1-2", "note": "[compound 13]", "pEC50": "> 7.40"}, {"compound": "CCn1cc(C(F)(F)F)cc2nc(-c3ncc(-c4ccc(C5(C#N)CC5)cc4)cc3S(=O)(=O)CC)cc1-2", "note": "[compound 22]", "pEC50": "> 7.40"}, {"compound": "CCS(=O)(=O)c1cc(-c2ccc(C3CC3)cc2)cnc1-n1cc2cnc(C(F)(F)F)cc2n1", "note": "[compound 26]", "pEC50": "> 7.40"}, {"compound": "CCS(=O)(=O)c1cc(-c2ccc(C3(C(F)(F)F)CC3)cc2)cnc1-c1nc2cc(C(F)(F)F)cn(CC(F)F)c-2c1F", "note": "[compound 65]", "pEC50": "> 7.40"}, {"compound": "CCS(=O)(=O)c1cc(-c2ccc(C3(C(F)(F)F)CC3)nc2)cnc1-c1nc2cc(C(F)(F)C(F)(F)F)nnc2n1C", "note": "[compound 72]", "pEC50": "> 7.40"}, {"compound": "CCS(=O)(=O)c1cc(-c2ccc(C3(C#N)CC3)cc2)cnc1-c1nc2cc(C(F)(F)C(F)(F)F)cnc2n1C", "note": "[compound 80]", "pEC50": "> 7.40"}, {"compound": "CCS(=O)(=O)c1cc(-c2ccc(C3(C#N)CC3)cc2)cnc1-n1cc2cnc(S(=O)(=O)C(F)(F)F)cc2n1", "note": "[compound 202]", "pEC50": "> 7.40"}, {"compound": "CCS(=O)(=O)c1cc(-c2ccc(C3(C#N)CC3)cc2)cnc1-n1cc2cnc([S+]([O-])C(F)(F)F)cc2n1", "note": "(stereo not shown) [compound 203]", "pEC50": "> 7.40"}, {"compound": "CCS(=O)(=O)c1cc(-c2ccc(C3(C#N)CC3)cc2)cnc1-n1cc2cnc(SC(F)(F)F)cc2n1", "note": "[compound 204]", "pEC50": "> 7.40"}, {"compound": "CCS(=O)(=O)c1cc(-c2ccc(C3(C#N)CC3)cc2)cnc1-c1nc2cc(C(C)(F)F)cnc2n1C", "note": "[compound 207]", "pEC50": "> 7.40"}, {"compound": "CCS(=O)(=O)c1cc(-c2ccc(C3(C#N)CC3)cc2)cnc1-c1ccc(OCC(F)(F)C(F)(F)F)nn1", "note": "[compound 212]", "pEC50": "> 7.40"}]}]}
